For one molecule, binding results are on record in paper PMC3040221.

The chains behind the UniProt entries cited, without tags or fusion partners.
UniProt Q8BTM8: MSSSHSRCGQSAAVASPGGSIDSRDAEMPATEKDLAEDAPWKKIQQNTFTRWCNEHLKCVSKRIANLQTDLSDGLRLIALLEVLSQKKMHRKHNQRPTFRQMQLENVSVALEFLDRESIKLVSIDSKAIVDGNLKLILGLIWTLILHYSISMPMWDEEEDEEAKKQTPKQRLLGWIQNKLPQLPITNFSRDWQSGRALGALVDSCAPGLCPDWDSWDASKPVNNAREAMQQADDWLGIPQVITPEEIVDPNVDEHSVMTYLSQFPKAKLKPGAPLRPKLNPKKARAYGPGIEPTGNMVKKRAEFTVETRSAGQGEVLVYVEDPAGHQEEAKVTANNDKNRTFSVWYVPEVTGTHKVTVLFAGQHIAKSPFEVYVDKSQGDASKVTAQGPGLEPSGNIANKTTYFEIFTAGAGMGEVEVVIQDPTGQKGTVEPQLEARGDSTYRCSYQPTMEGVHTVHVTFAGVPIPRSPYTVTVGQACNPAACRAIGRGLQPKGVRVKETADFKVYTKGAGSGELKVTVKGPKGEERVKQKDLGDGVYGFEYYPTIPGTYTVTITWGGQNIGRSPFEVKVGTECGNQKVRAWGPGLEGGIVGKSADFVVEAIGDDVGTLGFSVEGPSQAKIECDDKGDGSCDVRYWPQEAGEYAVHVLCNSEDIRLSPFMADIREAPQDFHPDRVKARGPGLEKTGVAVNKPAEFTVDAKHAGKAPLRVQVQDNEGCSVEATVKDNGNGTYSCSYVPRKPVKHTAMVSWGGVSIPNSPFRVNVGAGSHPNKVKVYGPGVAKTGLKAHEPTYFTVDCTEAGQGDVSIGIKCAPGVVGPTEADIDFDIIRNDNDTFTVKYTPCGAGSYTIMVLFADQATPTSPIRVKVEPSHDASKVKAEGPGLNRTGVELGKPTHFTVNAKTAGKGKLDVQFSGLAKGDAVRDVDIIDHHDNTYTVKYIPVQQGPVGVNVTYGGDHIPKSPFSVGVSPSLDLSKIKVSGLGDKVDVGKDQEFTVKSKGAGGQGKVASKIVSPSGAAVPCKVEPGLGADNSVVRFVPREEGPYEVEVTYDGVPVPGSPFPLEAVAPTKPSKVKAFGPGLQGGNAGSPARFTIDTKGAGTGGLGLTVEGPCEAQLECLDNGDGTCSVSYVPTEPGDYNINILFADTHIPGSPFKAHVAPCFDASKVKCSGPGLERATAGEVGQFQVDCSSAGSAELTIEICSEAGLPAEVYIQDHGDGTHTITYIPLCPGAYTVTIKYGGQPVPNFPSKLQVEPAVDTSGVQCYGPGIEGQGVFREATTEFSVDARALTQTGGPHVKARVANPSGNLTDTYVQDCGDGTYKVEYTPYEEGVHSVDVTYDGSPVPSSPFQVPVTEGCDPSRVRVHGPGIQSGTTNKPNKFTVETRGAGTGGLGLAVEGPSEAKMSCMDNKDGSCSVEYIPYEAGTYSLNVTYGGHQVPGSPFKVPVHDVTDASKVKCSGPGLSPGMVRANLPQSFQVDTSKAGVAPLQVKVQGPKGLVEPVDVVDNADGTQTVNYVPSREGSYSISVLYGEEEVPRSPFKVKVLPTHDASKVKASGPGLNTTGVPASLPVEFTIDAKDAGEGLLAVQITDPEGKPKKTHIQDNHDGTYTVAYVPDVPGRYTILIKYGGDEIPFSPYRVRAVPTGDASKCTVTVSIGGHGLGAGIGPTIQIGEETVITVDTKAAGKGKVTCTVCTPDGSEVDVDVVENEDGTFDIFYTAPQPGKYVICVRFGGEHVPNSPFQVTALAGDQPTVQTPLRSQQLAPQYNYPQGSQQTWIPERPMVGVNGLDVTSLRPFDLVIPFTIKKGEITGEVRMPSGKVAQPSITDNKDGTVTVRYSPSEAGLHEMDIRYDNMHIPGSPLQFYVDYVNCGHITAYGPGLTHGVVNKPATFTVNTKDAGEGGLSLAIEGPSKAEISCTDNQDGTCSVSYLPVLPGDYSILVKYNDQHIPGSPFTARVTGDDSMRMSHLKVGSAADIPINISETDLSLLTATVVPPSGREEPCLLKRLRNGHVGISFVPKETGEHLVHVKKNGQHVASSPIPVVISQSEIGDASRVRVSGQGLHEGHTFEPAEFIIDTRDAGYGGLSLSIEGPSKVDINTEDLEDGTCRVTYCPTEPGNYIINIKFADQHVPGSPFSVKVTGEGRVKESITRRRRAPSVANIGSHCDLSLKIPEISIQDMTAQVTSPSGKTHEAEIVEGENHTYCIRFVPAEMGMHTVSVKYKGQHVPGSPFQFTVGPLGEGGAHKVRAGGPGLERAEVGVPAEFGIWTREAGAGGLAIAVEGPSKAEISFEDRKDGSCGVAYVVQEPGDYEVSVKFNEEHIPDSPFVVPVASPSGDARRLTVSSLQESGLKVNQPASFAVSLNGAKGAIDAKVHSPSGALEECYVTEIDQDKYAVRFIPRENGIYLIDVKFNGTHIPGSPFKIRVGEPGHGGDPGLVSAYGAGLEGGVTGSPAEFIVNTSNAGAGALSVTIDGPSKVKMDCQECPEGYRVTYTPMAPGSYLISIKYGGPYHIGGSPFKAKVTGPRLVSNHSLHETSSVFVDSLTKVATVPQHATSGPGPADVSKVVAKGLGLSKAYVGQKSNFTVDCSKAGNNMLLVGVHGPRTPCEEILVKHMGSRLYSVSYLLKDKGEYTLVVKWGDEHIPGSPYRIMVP

No constants are given. Whether binding was seen depends on the method and setting. Binding seen in cells or lysates may run through a third protein. Some entries that bind do so weakly or less than the wild type.

The target in this test is Filamin A (endogenous, NIH3T3 fibroblasts) (mouse (endogenous in NIH3T3)) (UniProt Q8BTM8). Description: co-IP; quiescent NIH3T3 cells untreated or treated 5 min with R1881 (1 pM or 10 nM); lysates immunoprecipitated with anti-FlnA antibody, immunoblot (Fig. 6C, Fig. S6).

B1: Integrin beta 3 (endogenous, NIH3T3 fibroblasts) (receptor, UniProt O54890 26-787)
chain: ESNICTTRGVNSCQQCLAVSPVCAWCSDETLSQGSPRCNLKENLLKDNCAPESIEFPVSEAQILEARPLSSKGSGSSAQITQVSPQRIALRLRPDDSKIFSLQVRQVEDYPVDIYYLMDLSFSMKDDLSSIQTLGTKLASQMRKLTSNLRIGFGAFVDKPVSPYMYISPPQAIKNPCYNMKNACLPMFGYKHVLTLTDQVSRFNEEVKKQSVSRNRDAPEGGFDAIMQATVCDEKIGWRNDASHLLVFTTDAKTHIALDGRLAGIVLPNDGHCHIGTDNHYSASTTMDYPSLGLMTEKLSQKNINLIFAVTENVVSLYQNYSELIPGTTVGVLSDDSSNVLQLIVDAYGKIRSKVELEVRDLPEELSLSFNATCLNNEVIPGLKSCVGLKIGDTVSFSIEAKVRGCPQEKEQSFTIKPVGFKDSLTVQVTFDCDCACQAFAQPSSPRCNNGNGTFECGVCRCDQGWLGSMCECSEEDYRPSQQEECSPKEGQPICSQRGECLCGQCVCHSSDFGKITGKYCECDDFSCVRYKGEMCSGHGQCNCGDCVCDSDWTGYYCNCTTRTDTCMSTNGLLCSGRGNCECGSCVCVQPGSYGDTCEKCPTCPDACSFKKECVECKKFNRGTLHEENTCSRYCRDDIEQVKELTDTGKNAVNCTYKNEDDCVVRFQYYEDTSGRAVLYVVEEPECPKGPDILVVLLSVMGAILLIGLATLLIWKLLITIHDRKEFAKFEEERARAKWDTANNPLYKEATSTFTNITYRGT
In the case of B1, the binding result is listed as “binds weakly”.
